Results: patent US9980936B2, “BH4 antagonists and methods related thereto” (Emory University, priority 2014, dated 2018)
For at least one compound, name, drawing or mass did not settle the structure. Peptide text beside a SMILES is read from it. * marks the point of attachment. FITC = O=C1OC2(c3ccc(O)cc3Oc3cc(O)ccc32)c2ccc(NC(=S)*)cc21

The chains behind the UniProt entries cited, without tags or fusion partners.
UniProt P10415, whole entry: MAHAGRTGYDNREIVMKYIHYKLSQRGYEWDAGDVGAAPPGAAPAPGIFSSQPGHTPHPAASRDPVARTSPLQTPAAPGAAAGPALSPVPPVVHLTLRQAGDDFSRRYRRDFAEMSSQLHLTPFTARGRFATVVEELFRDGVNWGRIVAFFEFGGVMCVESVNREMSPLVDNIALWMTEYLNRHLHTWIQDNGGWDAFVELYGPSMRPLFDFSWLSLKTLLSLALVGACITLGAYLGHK

Target: Bcl2 (Homo sapiens, UniProt P10415)
Assay: fluorescence polarization binding of FITC-labeled c-Myc-derived peptide to Bcl2

CSCC[C@H](NC(=O)[C@H](CS)NC(=O)[C@H](CC(=O)O)NC(=O)[C@H](CCC(N)=O)NC(=S)Nc1ccc2c(c1)C(=O)OC21c2ccc(O)cc2Oc2cc(O)ccc21)C(=O)N[C@@H](Cc1c[nH]c2ccccc12)C(=O)N[C@@H](CO)C(=O)NCC(=O)N[C@@H](Cc1ccccc1)C(=O)N[C@@H](CO)C(=O)N[C@@H](C)C(=O)O [FITC-QDCMWSGFSA peptide] ({FITC}-QDCMWSGFSA-OH; N-terminus and C-terminus assumed) showed a Kd of 19.3 ± 2.86 nM.
